Measurements: publication PMC3290555
Results are given in words; binding and its absence hold for the method and conditions named. Values belong to the binder of their own block, whether it stands above or below them.

Assays:
[1] = target: cat-C (mouse CNPase residues 159-400) (mouse) (UniProt P16330); assay: SEC; size exclusion chromatography of the samples used for SAXS; single symmetric peaks; both purified
[2] = target: N-cat-C (mouse CNPase residues 138-400) (mouse) (UniProt P16330); assay: as above
[3] = target: N-cat (mouse CNPase residues 138-378) (mouse) (UniProt P16330); assay: as above
[4] = target: mouse CNPase catalytic domain (residues 159-378) (mouse) (UniProt P16330); assay: as above
[5] = target: mouse CNPase catalytic domain (residues 159-378) (mouse) (UniProt P16330); assay: SAXS; synchrotron small-angle X-ray scattering in solution; Bis-Tris pH 5.5 buffers, 100-300 mM NaCl, with and without 50 mM sodium citrate; both purified

B2: N-cat-C (mouse CNPase residues 138-400) (domain or fragment, UniProt P16330-2 138-400)
chain: AQLKEKNQWQLSADDLKKLKPGLEKDFLPLYFGWFLTKKSSETLRKAGQVFLEELGNHKAFKKELRHFISGDEPKEKLELVSYFGKRPPGVLHCTTKFCDYGKAAGAEEYAQQEVVKRSYGKAFKLSISALFVTPKTAGAQVVLTDQELQLWPSDLDKPSASEGLPPGSRAHVTLGCAADVQPVQTGLDLLDILQQVKGGSQGEAVGELPRGKLYSLGKGRWMLSLTKKMEVKAIFTGYYGKGKPVPIHGSRKGGAMQICTII
binding [2]: no binding

B3: N-cat (mouse CNPase residues 138-378) (domain or fragment, UniProt P16330-2 138-378)
chain: AQLKEKNQWQLSADDLKKLKPGLEKDFLPLYFGWFLTKKSSETLRKAGQVFLEELGNHKAFKKELRHFISGDEPKEKLELVSYFGKRPPGVLHCTTKFCDYGKAAGAEEYAQQEVVKRSYGKAFKLSISALFVTPKTAGAQVVLTDQELQLWPSDLDKPSASEGLPPGSRAHVTLGCAADVQPVQTGLDLLDILQQVKGGSQGEAVGELPRGKLYSLGKGRWMLSLTKKMEVKAIFTGYYG
binding [3]: no binding

Second part, led by results:

binding [1]: no binding
B1: cat-C (mouse CNPase residues 159-400) (domain or fragment, UniProt P16330-2 159-400)
chain: GLEKDFLPLYFGWFLTKKSSETLRKAGQVFLEELGNHKAFKKELRHFISGDEPKEKLELVSYFGKRPPGVLHCTTKFCDYGKAAGAEEYAQQEVVKRSYGKAFKLSISALFVTPKTAGAQVVLTDQELQLWPSDLDKPSASEGLPPGSRAHVTLGCAADVQPVQTGLDLLDILQQVKGGSQGEAVGELPRGKLYSLGKGRWMLSLTKKMEVKAIFTGYYGKGKPVPIHGSRKGGAMQICTII

binding [4]: no binding
B4: mouse CNPase catalytic domain (residues 159-378) (domain or fragment, UniProt P16330-2 159-378)
chain: GLEKDFLPLYFGWFLTKKSSETLRKAGQVFLEELGNHKAFKKELRHFISGDEPKEKLELVSYFGKRPPGVLHCTTKFCDYGKAAGAEEYAQQEVVKRSYGKAFKLSISALFVTPKTAGAQVVLTDQELQLWPSDLDKPSASEGLPPGSRAHVTLGCAADVQPVQTGLDLLDILQQVKGGSQGEAVGELPRGKLYSLGKGRWMLSLTKKMEVKAIFTGYYG
binding [5]: no binding (tested: 5–15 mg/ml; 1–10 mg/ml; 3–15 mg/ml)
